Laboratory results from the supplement of paper PMC10849652.
The list shows a part of the results.

The chains behind the UniProt entries cited, without tags or fusion partners. Where a name states a change or a piece, a line headed by the entry shows the natural chain unless it says otherwise.
UniProt Q13433: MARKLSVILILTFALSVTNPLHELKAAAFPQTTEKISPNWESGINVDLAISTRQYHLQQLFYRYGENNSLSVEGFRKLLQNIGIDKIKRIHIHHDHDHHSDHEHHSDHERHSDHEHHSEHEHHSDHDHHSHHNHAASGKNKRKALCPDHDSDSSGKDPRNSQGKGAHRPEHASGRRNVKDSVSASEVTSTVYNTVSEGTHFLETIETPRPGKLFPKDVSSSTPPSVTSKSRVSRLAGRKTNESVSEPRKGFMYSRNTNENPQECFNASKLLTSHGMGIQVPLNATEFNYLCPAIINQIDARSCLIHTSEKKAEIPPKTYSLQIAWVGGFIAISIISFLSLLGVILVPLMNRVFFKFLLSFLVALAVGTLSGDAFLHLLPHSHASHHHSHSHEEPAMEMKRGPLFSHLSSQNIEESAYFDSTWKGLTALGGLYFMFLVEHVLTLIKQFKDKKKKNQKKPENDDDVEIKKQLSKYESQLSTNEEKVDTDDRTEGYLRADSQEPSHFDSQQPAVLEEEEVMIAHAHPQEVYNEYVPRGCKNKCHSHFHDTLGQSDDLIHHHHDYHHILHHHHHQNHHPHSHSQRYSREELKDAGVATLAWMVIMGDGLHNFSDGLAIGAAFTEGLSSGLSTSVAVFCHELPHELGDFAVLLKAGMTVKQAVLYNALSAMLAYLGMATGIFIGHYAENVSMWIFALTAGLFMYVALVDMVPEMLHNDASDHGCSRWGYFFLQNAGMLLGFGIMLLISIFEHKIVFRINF
UniProt Q96A46: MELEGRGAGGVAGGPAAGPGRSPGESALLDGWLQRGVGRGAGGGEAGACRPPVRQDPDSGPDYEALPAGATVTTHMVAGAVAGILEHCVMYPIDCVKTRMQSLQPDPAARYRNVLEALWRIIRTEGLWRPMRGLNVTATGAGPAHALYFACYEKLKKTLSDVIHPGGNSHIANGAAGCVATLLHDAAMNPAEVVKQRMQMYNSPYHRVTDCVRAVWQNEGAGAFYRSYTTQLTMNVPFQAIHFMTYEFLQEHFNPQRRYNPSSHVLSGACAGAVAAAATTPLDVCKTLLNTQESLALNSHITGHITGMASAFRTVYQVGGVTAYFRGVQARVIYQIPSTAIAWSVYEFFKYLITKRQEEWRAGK
UniProt Q8N2U9: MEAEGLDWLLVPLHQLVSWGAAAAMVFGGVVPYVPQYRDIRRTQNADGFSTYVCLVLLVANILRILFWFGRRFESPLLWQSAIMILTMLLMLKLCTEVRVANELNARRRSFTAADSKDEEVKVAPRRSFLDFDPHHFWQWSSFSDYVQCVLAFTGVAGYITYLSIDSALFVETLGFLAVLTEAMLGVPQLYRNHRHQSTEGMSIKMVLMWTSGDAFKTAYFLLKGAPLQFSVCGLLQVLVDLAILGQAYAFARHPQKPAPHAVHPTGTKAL
UniProt Q96H72: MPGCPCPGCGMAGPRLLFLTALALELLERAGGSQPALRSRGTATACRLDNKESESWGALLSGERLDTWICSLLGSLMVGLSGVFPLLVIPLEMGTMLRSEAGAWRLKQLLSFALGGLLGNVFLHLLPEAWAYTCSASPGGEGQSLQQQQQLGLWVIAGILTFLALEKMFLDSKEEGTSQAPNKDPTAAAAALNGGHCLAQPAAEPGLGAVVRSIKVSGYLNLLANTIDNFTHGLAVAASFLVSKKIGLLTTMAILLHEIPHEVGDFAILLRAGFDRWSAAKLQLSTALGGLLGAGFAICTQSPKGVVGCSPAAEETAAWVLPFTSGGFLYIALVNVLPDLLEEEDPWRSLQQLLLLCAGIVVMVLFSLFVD
UniProt Q96GZ6: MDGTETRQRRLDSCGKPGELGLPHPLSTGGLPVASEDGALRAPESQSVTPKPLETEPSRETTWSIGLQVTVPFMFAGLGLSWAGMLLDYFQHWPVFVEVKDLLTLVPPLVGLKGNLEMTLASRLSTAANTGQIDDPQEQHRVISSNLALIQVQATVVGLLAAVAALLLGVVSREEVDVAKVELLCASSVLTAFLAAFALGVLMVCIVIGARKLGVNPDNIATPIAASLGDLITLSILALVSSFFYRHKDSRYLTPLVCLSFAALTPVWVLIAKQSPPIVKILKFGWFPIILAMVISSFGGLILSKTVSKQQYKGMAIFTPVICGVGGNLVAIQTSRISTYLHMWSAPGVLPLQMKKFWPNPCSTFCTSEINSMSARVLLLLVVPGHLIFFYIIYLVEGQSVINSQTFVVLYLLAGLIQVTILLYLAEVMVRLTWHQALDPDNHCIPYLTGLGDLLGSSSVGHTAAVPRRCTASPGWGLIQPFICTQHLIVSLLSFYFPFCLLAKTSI
UniProt P0C7P3: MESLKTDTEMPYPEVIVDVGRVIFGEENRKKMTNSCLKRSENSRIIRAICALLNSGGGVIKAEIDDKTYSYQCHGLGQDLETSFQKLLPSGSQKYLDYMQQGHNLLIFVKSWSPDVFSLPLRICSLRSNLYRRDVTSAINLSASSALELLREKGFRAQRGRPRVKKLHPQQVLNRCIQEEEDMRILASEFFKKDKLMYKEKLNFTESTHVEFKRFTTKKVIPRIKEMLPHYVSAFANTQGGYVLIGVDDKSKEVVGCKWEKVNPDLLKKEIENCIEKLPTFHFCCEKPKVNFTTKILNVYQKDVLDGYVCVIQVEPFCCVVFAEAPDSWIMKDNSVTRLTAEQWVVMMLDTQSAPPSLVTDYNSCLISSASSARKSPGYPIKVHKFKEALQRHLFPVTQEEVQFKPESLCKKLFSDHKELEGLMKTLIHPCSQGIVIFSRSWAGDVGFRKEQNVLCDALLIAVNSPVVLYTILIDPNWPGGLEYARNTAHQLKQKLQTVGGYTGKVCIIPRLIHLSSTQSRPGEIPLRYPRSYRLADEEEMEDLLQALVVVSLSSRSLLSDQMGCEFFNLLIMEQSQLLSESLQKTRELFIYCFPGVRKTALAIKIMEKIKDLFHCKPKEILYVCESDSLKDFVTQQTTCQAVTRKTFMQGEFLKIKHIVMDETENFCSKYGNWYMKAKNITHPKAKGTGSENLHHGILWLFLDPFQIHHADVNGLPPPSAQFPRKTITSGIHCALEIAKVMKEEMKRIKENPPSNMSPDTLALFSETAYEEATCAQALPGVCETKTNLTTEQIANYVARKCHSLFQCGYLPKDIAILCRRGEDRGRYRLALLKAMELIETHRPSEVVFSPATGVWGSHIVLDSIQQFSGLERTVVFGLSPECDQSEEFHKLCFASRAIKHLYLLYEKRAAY
UniProt Q6J4K2: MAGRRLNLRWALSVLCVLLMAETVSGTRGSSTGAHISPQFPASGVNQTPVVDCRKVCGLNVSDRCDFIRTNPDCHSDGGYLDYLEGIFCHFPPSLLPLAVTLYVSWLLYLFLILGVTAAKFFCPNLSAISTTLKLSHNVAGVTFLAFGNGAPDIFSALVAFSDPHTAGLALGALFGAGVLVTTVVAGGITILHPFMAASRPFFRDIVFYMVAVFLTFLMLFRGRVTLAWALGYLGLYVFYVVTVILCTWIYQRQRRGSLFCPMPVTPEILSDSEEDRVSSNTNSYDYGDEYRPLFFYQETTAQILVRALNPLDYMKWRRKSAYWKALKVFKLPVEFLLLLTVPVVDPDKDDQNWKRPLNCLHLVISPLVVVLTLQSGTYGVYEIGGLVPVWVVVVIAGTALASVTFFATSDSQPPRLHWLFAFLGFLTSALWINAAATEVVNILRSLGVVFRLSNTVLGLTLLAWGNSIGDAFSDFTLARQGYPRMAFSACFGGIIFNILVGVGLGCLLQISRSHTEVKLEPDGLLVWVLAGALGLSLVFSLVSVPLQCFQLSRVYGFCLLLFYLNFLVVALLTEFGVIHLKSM
UniProt Q9UGH3: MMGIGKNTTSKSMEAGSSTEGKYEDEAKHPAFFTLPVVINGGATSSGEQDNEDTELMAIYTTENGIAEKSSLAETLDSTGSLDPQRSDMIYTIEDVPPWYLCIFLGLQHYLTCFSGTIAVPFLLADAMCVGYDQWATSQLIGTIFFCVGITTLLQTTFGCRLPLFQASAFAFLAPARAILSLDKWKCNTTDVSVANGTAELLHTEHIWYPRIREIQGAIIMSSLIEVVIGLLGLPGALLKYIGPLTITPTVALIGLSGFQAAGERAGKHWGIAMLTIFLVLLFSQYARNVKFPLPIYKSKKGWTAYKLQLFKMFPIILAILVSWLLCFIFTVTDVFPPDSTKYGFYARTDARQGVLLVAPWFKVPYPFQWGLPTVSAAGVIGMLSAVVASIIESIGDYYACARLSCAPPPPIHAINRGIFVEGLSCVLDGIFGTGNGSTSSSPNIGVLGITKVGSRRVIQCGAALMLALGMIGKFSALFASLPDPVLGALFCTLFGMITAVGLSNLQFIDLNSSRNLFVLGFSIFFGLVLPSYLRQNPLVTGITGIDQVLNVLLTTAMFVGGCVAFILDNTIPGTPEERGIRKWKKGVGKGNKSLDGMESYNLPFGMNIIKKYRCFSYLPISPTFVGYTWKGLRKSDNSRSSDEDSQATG
UniProt Q8NBI5: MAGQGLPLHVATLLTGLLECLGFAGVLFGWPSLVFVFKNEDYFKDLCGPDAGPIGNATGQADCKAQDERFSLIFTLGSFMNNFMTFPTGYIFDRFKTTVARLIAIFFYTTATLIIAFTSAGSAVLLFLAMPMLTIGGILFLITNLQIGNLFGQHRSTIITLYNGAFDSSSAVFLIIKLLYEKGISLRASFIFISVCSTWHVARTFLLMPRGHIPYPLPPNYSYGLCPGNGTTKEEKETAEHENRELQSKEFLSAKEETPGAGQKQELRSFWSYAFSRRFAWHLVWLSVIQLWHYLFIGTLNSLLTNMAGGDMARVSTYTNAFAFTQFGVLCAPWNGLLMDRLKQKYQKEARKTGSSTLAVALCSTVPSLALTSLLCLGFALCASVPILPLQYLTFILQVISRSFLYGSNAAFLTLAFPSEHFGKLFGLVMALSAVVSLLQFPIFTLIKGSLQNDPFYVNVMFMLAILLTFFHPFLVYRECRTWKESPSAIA
UniProt Q9NQQ7: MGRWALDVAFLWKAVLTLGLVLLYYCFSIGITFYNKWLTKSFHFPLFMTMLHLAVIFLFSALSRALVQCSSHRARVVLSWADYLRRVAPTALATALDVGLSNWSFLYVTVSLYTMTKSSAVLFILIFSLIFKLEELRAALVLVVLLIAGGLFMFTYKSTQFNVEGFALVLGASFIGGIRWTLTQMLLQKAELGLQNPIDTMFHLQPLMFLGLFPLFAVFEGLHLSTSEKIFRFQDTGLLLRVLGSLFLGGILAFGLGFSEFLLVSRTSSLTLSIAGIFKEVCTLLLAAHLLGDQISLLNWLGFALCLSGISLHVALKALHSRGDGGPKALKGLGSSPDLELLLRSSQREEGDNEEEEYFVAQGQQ
UniProt Q96T83: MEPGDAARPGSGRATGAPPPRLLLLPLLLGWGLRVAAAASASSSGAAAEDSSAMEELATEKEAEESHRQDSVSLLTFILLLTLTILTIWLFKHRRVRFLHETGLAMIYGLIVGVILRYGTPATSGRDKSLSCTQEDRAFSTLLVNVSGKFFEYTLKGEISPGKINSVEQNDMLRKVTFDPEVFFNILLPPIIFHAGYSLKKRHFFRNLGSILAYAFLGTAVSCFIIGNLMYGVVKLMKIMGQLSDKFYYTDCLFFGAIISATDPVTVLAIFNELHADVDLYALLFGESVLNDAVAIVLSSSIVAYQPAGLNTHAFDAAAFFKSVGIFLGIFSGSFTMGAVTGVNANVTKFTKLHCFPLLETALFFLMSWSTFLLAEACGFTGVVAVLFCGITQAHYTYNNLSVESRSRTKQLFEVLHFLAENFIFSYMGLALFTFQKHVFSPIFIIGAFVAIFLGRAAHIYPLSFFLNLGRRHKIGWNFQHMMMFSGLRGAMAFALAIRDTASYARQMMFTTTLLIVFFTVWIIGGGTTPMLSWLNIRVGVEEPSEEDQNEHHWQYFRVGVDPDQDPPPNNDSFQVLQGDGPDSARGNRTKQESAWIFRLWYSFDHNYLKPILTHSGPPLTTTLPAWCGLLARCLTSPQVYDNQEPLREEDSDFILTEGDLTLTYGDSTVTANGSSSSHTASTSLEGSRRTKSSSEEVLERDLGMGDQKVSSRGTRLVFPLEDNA
UniProt Q9Y2E8: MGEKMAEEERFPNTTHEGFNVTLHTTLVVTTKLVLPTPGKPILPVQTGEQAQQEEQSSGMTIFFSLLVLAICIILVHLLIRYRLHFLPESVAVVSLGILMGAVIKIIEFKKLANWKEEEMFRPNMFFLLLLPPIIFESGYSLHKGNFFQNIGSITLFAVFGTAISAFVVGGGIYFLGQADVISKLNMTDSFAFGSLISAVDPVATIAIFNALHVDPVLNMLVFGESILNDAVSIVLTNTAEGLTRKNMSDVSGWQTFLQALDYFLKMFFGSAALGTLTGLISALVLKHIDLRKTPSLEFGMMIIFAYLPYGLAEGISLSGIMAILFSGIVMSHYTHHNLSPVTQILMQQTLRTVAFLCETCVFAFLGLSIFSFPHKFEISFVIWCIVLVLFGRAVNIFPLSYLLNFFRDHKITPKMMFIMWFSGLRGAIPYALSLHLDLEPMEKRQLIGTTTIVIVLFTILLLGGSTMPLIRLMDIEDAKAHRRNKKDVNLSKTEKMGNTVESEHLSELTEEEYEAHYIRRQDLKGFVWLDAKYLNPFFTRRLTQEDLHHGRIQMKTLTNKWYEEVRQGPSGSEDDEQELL

How the values were obtained:
Assay in all cases: log2 fold change, soluble protein after heating vs DMSO (PISA); higher = thermal stabilisation; K562 lysate, 10 uM; active = over 0.2 and 3.5 SD of the protein, either way, in both replicates (recomputed)
[1] = compound: C/C(=N\NC(=O)C1=CC(=CC=C1)S(=O)(=O)N2CCOCC2)/C3=C(C=CC(=C3)Cl)O
Summary of the method: (§1)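 To prepare the extract, K562 pellets were dounce-homogenised in PBS pH 7.4 with 1 mM MgCl2, giving crude material at 1 mg/mL protein. This was treated with 10 μM compound for 30 min, then heated in aliquots for 3 min over 48°C-58°C before pooling and addition of NP-40 to 0.5% at 4°C. Centrifugation at 21,000xg for 90 min left soluble protein in the supernatant, which TMTpro 16plex LC-MS/MS quantified with equalised channel sums. Results are log-two fold changes in thermal stability compared with solvent controls, from duplicates.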

[2] = compound: C1=CC2=C(C=CC(=C2)/C=C\3/C(=O)NC(=NCC4=CC=CS4)S3)N=C1
Summary of the method: as §1

[3] = compound: C1=CC2=NC=CN=C2C=C1/C=C/3\C(=O)NC(=O)S3
Summary of the method: as §1

[4] = compound: C1=CC=C(C=C1)C2=NC(=C(N2)C3=CC=NC=C3)C4=CC(=C(C=C4)Cl)O
Summary of the method: as §1

[5] = compound: C1=CC=C2C(=C1)C3=NNC4=CC=CC(=C43)C2=O
Summary of the method: as §1

[6] = compound: C1CCN(C1)C(=O)NC2=CC=CC(=C2)NC3=NC=C(C(=N3)NCCC4=CN=CN4)Br
Summary of the method: as §1

[7] = compound: C1CN(CCC1(CC2=CC=C(C=C2)Cl)N)C3=NC=NC4=C3C=CN4
Summary of the method: as §1

IRAK-1-4 Inhibitor I = compound: C1COCCN1CCN2C3=CC=CC=C3N=C2NC(=O)C4=CC(=CC=C4)[N+](=O)[O-] [IRAK-1-4 Inhibitor I]
Summary of the method: as §1

erlotinib = compound: C#Cc1cccc(Nc2ncnc3cc(OCCOC)c(OCCOC)cc23)c1 [erlotinib]
Summary of the method: as §1

[8] = compound: C1=CC(=CC=C1C2=NC3=C(N2)C=C(C=C3)C(=O)N)OC4=CC=C(C=C4)Cl
Summary of the method: as §1

Measured: log2 fold change

SLC30A7 (UniProt Q8NEW0)
inactive: [1] 0.093 | [2] -0.077 | [3] -0.093 | [4] -0.087 | [5] 0.01 | [6] 0.015 | [7] 0.021 | IRAK-1-4 Inhibitor I 0.147

SLC35D1 (UniProt Q9NTN3)
inactive: [1] 0.032 | [2] -0.053 | [5] 0.125

SMAGP (UniProt Q0VAQ4)
inactive: erlotinib -0.024 | [8] -0.014 | [4] -0.005 | [6] -0.112 | [7] 0.063 | IRAK-1-4 Inhibitor I -0.089

SLC41A1 (UniProt Q8IVJ1)
inactive: erlotinib 0.176 | [8] -0.042 | [4] 0.018 | [6] 0.024 | [7] -0.014 | IRAK-1-4 Inhibitor I -0.008

SLC25A39 (UniProt Q9BZJ4)
inactive: erlotinib 0.185 | [8] -0.105

SLC3A2 (UniProt F5GZS6)
inactive: erlotinib -0.234 | [8] 0.045 | [3] -0.063 | [4] -0.155 | [6] -0.014 | [7] 0.011 | IRAK-1-4 Inhibitor I 0.007

SLC39A6 (UniProt Q13433)
inactive: erlotinib 0.012 | [8] 0.018 | [4] -0.049 | IRAK-1-4 Inhibitor I -0.023

SLX4 (UniProt Q8IY92)
inactive: erlotinib 0.061 | [8] -0.107

SLC29A3 (UniProt Q9BZD2)
inactive: erlotinib 0.007 | [8] 0.034 | [4] 0.014 | IRAK-1-4 Inhibitor I 0.099

SLC25A28 (UniProt Q96A46)
inactive: [1] -0.116 | [2] 0.139 | [5] -0.232 | [6] -0.129 | [7] 0.278

SLCO4A1 (UniProt Q96BD0)
inactive: [3] 0.08

SLC66A2 (UniProt Q8N2U9)
inactive: erlotinib -0.004 | [8] 0.076 | [3] 0.14 | [4] -0.063 | [6] -0.045 | [7] 0.033 | IRAK-1-4 Inhibitor I 0.019

SLC46A1 (UniProt Q96NT5)
inactive: erlotinib -0.057 | [8] 0.227

SLC3A2 (UniProt F5H867)
inactive: [3] -0.019

SLC66A1 (UniProt Q6ZP29)
inactive: erlotinib 0.06 | [8] 0.11 | [3] -0.079 | [4] 0.066 | IRAK-1-4 Inhibitor I 0.017

SLC39A13 (UniProt Q96H72)
inactive: erlotinib 0.344 | [8] 0.063 | [4] -0.252 | IRAK-1-4 Inhibitor I -0.025

SLC41A3 isoform 9 (UniProt Q96GZ6)
inactive: [1] -0.056 | [2] 0.011 | [3] 0.292 | [4] -0.046 | [5] -0.234 | [6] -0.1 | [7] -0.017 | IRAK-1-4 Inhibitor I -0.452

SLC26A11 (UniProt Q86WA9)
inactive: erlotinib 0.067 | [8] -0.028

SLFN14 (UniProt P0C7P3)
inactive: [1] -0.057 | [2] -0.079 | [3] -0.01 | [5] 0.182 | [6] -0.083 | [7] -0.091

SLC27A6 (UniProt Q9Y2P4)
inactive: erlotinib 0.045 | [8] -0.346

SLC8B1 (UniProt Q6J4K2)
inactive: [1] 0.178 | [2] -0.051 | [5] 0.087

SLC9B2 (UniProt Q86UD5)
inactive: [4] 0.101 | IRAK-1-4 Inhibitor I -0.084

SLC23A2 (UniProt Q9UGH3)
inactive: erlotinib -0.112 | [8] 0.214 | [4] 0.054 | [6] -0.086 | [7] 0.106 | IRAK-1-4 Inhibitor I -0.018

SLC43A3 (UniProt Q8NBI5)
inactive: [3] 0 | [4] -0.168 | IRAK-1-4 Inhibitor I 0.022

SLC25A23 isoform 3 (UniProt Q9BV35)
inactive: erlotinib 0.021 | [8] 0.003 | [4] -0.03 | IRAK-1-4 Inhibitor I 0.011

SLC35E2B (UniProt P0CK96)
inactive: [1] 0.006 | [2] -0.112 | [5] -0.175 | [6] 0.043 | [7] 0.007

Looked up one by one from the list above, 2 records:
SLC43A3 (UniProt Q8NBI5)
inactive: [3] 0 | [4] -0.168 | IRAK-1-4 Inhibitor I 0.022

SLC35E2B (UniProt P0CK96)
inactive: [1] 0.006 | [2] -0.112 | [5] -0.175 | [6] 0.043 | [7] 0.007

Next part.

SLC25A16 (UniProt P16260)
inactive: erlotinib -0.028 | [1] 0.121 | [8] 0.173 | [2] 0.079 | [5] -0.022

SLCO2B1 (UniProt O94956)
inactive: [6] -0.193 | [7] -0.378

SLC35C2 isoform 3 (UniProt Q9NQQ7)
inactive: erlotinib 0.019 | [8] 0.014 | [3] -0.013 | [4] 0.024 | [6] -0.082 | [7] 0.147 | IRAK-1-4 Inhibitor I 0.03

SLC25A35 (UniProt Q3KQZ1)
inactive: [6] -0.008 | [7] 0.174

SLC9A7 (UniProt Q96T83)
inactive: [3] -0.568

SLC39A1 (UniProt Q9NY26)
inactive: erlotinib 0.117 | [8] 0.069 | [3] -0.122 | [4] -0.224 | IRAK-1-4 Inhibitor I 0.133

SLC2A13 (UniProt Q96QE2)
inactive: erlotinib 0.051 | [8] -0.047 | [6] -0.053 | [7] -0.05

SLC9A8 isoform 2 (UniProt Q9Y2E8)
inactive: erlotinib -0.16 | [8] -0.038 | [3] 0.057 | [4] -0.052 | IRAK-1-4 Inhibitor I 0.038

SLC36A4 (UniProt Q6YBV0)
inactive: erlotinib 0.055 | [8] -0.005 | [3] -0.039 | [4] 0.036 | [6] -0.297 | [7] 0.072 | IRAK-1-4 Inhibitor I -0.021
